Source: paper PMC7782846
These are yes or no findings as the source states them, for the method shown. Binding seen in cells or lysates may run through a third protein. Some results given as binding are weak or reduced against the parent protein; the word gives no strength. Sequences can lack the tags named with a protein.

Biological target: T1, α-COP-FLAG (WT), mouse (mouse) (UniProt Q8CIE6)
T1 sequence: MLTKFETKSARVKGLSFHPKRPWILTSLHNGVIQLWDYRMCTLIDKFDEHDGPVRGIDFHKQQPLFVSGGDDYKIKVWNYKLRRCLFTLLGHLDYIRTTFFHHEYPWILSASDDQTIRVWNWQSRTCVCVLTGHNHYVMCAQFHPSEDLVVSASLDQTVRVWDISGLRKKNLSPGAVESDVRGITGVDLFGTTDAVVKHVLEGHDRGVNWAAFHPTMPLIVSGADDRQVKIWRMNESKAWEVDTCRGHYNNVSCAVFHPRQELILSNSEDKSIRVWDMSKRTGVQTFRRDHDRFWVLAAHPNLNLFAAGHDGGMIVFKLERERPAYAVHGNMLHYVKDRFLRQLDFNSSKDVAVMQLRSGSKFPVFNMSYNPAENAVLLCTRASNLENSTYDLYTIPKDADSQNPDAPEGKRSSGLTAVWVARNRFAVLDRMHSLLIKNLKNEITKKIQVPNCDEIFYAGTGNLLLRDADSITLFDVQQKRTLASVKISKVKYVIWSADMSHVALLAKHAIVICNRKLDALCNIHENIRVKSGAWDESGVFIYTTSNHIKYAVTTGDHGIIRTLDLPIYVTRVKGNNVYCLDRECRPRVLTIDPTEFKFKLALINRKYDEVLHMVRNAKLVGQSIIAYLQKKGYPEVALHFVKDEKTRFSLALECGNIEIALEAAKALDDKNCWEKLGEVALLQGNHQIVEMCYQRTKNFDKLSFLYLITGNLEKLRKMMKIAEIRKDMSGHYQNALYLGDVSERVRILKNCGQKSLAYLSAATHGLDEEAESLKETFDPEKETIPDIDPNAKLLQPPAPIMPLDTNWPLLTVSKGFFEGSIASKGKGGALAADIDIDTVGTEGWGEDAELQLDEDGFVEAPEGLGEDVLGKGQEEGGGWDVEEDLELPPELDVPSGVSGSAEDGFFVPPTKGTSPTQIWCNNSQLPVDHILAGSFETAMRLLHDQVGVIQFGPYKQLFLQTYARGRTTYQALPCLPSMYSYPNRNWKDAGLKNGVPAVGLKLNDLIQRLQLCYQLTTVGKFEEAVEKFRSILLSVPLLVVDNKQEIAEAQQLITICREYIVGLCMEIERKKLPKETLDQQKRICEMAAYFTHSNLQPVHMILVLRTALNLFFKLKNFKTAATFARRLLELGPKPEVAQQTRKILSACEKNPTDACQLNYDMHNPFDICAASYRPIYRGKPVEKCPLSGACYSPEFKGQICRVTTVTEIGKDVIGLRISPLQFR
Assay: co-IP; α-COP-FLAG immunoprecipitated with anti-FLAG from lysates of transfected HEK293T cells (1% CHAPS, 150 mM NaCl, pH 7.2), western blot

- binding: binds
B1: mutant Surf4 (K265A/K266A/K267A), mouse (protein, UniProt Q64310 1-269)
chain: MGQNDLMGTAEDFADQFLRVTKQYLPHVARLCLISTFLEDGIRMWFQWSEQRDYIDTTWSCGYLLASSFVFLNLLGQLTGCVLVLSRNFVQYACFGLFGIIALQTIAYSILWDLKFLMRNLALGGGLLLLLAESRSEGKSMFAGVPTMRESSPKQYMQLGGRVLLVLMFMTLLHFDASFFSIIQNIVGTALMILVAIGFKTKLAALTLVVWLFAINVYFNAFWTIPVYKPMHDFLKYDFFQTMSVIGGLLLVVALGPGGVSMDEAAAEW
